For this test, the target named is ryanodine receptor 2 (rat (endogenous in neonatal rat cardiomyocytes)) (UniProt B0LPN4). Nature of the test: co-IP.

Chains of the proteins cited; added tags and fusions are not shown.
UniProt B0LPN4: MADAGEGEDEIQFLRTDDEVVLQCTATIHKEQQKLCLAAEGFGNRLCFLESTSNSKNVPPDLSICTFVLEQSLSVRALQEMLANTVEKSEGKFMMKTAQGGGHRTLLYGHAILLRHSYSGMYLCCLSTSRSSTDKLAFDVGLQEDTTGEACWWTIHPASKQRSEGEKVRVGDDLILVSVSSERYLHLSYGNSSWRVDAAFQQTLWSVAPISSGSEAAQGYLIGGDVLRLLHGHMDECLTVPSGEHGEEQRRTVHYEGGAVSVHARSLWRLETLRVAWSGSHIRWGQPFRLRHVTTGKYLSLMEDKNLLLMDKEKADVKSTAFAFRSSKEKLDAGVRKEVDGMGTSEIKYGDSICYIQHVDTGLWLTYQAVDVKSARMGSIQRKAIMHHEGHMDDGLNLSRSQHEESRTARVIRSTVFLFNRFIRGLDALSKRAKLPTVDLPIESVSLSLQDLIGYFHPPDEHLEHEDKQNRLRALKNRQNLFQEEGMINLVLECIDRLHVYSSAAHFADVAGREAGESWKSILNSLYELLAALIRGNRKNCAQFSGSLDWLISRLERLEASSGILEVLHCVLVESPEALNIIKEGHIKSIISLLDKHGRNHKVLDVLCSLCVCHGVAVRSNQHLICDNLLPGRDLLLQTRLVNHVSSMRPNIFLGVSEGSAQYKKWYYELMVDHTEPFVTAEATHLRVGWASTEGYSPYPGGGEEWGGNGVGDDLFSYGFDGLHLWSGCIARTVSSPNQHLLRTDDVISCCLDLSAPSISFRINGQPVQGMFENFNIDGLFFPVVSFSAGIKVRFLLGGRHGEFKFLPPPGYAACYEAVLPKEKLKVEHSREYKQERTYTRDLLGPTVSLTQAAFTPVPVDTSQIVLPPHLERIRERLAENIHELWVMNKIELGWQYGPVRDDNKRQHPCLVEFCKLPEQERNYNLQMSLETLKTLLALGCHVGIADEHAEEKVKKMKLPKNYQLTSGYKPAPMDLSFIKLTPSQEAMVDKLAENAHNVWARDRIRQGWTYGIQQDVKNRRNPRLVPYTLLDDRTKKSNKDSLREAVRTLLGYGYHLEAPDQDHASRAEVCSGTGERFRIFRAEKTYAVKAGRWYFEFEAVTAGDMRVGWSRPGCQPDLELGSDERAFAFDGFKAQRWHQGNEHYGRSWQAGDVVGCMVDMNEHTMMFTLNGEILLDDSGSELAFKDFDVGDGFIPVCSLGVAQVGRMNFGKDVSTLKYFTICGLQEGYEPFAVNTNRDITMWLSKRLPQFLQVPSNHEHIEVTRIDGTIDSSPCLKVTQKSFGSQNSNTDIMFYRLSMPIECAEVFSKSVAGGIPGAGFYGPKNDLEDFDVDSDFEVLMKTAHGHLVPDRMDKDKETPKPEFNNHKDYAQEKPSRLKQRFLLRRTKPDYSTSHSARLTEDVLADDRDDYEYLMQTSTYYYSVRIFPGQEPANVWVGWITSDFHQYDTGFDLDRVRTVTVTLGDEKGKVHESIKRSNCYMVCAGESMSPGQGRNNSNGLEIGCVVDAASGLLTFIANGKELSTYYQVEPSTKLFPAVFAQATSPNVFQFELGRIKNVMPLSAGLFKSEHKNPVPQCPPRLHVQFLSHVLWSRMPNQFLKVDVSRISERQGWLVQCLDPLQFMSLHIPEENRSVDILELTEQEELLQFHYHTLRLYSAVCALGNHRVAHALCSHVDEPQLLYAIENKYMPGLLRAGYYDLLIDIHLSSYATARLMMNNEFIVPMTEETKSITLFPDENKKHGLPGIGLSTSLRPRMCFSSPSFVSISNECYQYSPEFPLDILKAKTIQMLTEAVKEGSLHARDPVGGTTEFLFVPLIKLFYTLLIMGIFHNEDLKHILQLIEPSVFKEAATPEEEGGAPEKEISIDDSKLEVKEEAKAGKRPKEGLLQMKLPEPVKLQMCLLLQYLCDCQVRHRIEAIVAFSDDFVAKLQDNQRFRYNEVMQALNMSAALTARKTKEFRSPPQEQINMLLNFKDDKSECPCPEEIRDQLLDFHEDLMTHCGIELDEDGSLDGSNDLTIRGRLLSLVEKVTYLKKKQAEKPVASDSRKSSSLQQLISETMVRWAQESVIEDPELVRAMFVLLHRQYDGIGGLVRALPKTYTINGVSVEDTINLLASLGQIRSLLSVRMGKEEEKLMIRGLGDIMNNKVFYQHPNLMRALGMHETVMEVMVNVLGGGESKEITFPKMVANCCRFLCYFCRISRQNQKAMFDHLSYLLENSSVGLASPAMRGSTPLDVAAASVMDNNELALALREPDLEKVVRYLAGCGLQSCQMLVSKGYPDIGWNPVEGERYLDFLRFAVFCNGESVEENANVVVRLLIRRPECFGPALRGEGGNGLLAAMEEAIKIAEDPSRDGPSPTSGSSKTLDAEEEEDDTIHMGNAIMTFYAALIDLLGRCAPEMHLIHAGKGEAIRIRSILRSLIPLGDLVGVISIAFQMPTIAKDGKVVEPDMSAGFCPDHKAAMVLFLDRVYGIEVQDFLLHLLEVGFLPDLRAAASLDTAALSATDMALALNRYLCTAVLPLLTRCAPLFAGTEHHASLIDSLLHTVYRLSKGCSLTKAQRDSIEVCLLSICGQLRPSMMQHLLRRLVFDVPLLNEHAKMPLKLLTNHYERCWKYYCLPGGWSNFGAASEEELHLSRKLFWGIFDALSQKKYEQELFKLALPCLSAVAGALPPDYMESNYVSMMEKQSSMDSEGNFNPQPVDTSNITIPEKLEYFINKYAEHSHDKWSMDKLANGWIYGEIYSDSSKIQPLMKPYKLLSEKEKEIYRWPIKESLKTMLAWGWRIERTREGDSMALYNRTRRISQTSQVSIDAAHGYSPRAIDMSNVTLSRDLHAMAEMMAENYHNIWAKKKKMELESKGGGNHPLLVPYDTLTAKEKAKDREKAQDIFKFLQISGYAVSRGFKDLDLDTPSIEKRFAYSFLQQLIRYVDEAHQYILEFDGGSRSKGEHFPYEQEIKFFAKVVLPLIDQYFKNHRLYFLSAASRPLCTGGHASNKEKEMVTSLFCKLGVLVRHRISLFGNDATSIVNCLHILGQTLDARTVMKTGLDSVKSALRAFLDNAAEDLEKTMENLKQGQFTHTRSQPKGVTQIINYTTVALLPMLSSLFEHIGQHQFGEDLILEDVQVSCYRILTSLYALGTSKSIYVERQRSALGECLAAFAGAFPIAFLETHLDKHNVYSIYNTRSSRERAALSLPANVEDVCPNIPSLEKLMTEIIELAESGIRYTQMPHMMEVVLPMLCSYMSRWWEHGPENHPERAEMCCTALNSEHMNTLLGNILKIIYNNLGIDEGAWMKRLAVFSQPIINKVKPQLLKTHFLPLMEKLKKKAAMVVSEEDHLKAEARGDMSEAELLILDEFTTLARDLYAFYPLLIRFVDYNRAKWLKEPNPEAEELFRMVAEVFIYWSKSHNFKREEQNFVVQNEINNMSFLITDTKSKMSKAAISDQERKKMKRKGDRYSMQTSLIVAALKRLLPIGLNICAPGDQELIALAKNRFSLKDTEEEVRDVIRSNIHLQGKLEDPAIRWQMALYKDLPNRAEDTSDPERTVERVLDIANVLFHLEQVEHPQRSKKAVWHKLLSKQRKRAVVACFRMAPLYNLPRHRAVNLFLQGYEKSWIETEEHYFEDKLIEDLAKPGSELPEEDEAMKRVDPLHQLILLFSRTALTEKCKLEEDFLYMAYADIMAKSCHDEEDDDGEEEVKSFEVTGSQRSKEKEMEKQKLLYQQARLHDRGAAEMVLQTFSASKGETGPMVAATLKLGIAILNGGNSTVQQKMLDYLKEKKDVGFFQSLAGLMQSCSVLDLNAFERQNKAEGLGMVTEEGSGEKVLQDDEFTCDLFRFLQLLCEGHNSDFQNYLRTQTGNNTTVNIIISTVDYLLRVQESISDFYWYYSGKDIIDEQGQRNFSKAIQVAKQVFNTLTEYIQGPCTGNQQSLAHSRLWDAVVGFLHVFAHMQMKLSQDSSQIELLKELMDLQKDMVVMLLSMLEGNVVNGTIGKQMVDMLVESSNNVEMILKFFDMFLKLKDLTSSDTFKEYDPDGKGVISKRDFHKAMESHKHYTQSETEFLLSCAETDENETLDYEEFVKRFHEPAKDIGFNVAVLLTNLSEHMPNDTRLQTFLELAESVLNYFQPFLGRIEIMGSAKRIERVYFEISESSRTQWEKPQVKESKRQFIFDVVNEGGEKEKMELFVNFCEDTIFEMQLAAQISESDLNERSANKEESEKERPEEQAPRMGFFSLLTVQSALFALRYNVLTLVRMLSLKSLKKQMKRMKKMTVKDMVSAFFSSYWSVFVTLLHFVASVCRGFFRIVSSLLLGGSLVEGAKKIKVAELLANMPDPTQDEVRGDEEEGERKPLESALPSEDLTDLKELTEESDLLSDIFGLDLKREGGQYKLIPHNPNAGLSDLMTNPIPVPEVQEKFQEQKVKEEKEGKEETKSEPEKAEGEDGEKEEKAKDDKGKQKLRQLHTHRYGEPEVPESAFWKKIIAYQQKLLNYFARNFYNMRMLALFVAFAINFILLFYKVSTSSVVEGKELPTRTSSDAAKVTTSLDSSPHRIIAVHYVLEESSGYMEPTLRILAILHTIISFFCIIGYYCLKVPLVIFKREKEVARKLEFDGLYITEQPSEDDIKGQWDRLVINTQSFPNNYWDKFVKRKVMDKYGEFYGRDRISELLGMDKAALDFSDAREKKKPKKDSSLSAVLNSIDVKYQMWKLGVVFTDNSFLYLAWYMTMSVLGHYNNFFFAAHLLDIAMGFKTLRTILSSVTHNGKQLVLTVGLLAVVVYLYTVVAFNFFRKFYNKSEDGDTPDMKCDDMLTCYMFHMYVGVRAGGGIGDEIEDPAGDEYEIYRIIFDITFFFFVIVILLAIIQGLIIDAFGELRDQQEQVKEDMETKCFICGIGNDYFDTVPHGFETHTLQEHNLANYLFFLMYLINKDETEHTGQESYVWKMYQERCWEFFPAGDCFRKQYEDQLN
UniProt P23297: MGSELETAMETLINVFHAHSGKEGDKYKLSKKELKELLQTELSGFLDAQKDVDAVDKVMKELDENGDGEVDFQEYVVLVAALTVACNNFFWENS

Results are given in words; binding and its absence hold for the method and conditions named. Binding seen in cells or lysates may run through a third protein. Some binding calls cover weakened binding; strength is not graded here.

In the case of “wild-type human S100A1 (from UniProt P23297 1-94)”, the binding result is “binds”.

The record behind these values is doi:10.1101/2023.09.01.555853.
